# According to US20080038278A1, “GPAT3 encodes a mammalian, microsomal acyl-coa:glycerol 3- phosphate acyltransferase” (priority 2006, published 2008):
# For at least one compound, name, drawing or mass did not settle the structure.
# What was measured:
# DGAT1 mRNA = DGAT1 mRNA (Q-PCR) in white adipose tissue of ob/ob mice treated with PPARγ agonist; format: in vivo, mouse; details: 15 mg/kg gavage once a day for 21 days
# mtGPAT1 mRNA = mtGPAT1 mRNA (Q-PCR) in white adipose tissue of ob/ob mice treated with PPARγ agonist; format: in vivo, mouse; details: 15 mg/kg gavage once a day for 21 days
compound,measurement,setting,value
CN(CCOc1ccc(CC2SC(=O)NC2=O)cc1)c1ccccn1 (centres unmarked) [rosiglitazone],expression level of DGAT1 in adipose tissue upon treatment,DGAT1 mRNA,did not change
same,expression level of mtGPAT1 in adipose tissue upon treatment,mtGPAT1 mRNA,did not change
